Reference: paper PMC13155533, “The secreted protein PCYOX1L controls the surface expression of acid-sensing ion channel 1a” (Science Advances, 2025)
Results are given in words; binding and its absence hold for the method and conditions named. In cells and extracts the contact can be indirect. Binding can be weak; no strength is given. Tags and fused reporters may be left off the sequences shown.

Target: rat PCYOX1L tagged with a hemagglutinin (HA) epitope (rat)
Assay: co-IP; proteins overexpressed in Asic1-/- HEK cells; lysis in 1% Triton X-100 in PBS; PCYOX1L-HA precipitated, protein G-Sepharose, 4°C; ASIC1a found by Western blot; rat IgG or beads only as negative controls

B1: rat ASIC1a-GFP (natural protein, UniProt P55926-1 1-526, looked up)
chain: MELKTEEEEVGGVQPVSIQAFASSSTLHGLAHIFSYERLSLKRALWALCFLGSLAVLLCVCTERVQYYFCYHHVTKLDEVAASQLTFPAVTLCNLNEFRFSQVSKNDLYHAGELLALLNNRYEIPDTQMADEKQLEILQDKANFRSFKPKPFNMREFYDRAGHDIRDMLLSCHFRGEACSAEDFKVVFTRYGKCYTFNSGQDGRPRLKTMKGGTGNGLEIMLDIQQDEYLPVWGETDETSFEAGIKVQIHSQDEPPFIDQLGFGVAPGFQTFVSCQEQRLIYLPSPWGTCNAVTMDSDFFDSYSITACRIDCETRYLVENCNCRMVHMPGDAPYCTPEQYKECADPALDFLVEKDQEYCVCEMPCNLTRYGKELSMVKIPSKASAKYLAKKFNKSEQYIGENILVLDIFFEVLNYETIEQKKAYEIAGLLGDIGGQMGLFIGASILTVLELFDYAYEVIKHRLCRRGKCQKEAKRSSADKGVALSLDDVKRHNPCESLRGHPAGMTYAANILPHHPARGTFEDFTC
notes: ASIC1a, rat, in pEGFP-N1; the methods say that rat ASIC1a was used for coexpression with PCYOX1L in HEK293 cells; The vector pEGFP-N1 would put GFP at the C-terminus; source: HEK cells, transfected, in digitonin lysate
  binding: binds
